Paper doi:10.1101/2025.10.31.685804
Where two headings read alike, the source gives them in different places. Results are given in words; binding and its absence hold for the method and conditions named. In cells and extracts the contact can be indirect. Some binding calls cover weakened binding; strength is not graded here. For part of these data: Sequences can lack the tags named with a protein.

By UniProt entry, the sequences of proteins in these tests, tags left out.
UniProt Q15436: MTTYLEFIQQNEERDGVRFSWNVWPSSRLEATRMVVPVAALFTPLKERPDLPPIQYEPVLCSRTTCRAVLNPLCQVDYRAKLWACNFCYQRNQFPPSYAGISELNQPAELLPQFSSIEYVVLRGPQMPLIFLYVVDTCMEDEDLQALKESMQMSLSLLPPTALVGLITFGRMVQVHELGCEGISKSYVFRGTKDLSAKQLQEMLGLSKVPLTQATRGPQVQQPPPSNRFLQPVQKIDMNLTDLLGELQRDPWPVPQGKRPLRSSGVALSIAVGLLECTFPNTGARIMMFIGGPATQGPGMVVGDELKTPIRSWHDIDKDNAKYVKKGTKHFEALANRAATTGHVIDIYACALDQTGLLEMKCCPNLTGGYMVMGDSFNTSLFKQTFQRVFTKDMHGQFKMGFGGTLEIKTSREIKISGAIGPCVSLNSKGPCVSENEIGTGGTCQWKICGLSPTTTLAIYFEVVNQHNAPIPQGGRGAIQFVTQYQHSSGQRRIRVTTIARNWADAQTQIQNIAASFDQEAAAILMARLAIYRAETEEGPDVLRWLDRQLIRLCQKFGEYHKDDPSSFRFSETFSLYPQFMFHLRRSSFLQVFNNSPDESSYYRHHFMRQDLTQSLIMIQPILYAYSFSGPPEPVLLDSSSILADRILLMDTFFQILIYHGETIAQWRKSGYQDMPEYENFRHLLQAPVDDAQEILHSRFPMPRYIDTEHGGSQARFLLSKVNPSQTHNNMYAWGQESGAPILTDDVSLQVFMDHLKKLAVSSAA
UniProt Q15437: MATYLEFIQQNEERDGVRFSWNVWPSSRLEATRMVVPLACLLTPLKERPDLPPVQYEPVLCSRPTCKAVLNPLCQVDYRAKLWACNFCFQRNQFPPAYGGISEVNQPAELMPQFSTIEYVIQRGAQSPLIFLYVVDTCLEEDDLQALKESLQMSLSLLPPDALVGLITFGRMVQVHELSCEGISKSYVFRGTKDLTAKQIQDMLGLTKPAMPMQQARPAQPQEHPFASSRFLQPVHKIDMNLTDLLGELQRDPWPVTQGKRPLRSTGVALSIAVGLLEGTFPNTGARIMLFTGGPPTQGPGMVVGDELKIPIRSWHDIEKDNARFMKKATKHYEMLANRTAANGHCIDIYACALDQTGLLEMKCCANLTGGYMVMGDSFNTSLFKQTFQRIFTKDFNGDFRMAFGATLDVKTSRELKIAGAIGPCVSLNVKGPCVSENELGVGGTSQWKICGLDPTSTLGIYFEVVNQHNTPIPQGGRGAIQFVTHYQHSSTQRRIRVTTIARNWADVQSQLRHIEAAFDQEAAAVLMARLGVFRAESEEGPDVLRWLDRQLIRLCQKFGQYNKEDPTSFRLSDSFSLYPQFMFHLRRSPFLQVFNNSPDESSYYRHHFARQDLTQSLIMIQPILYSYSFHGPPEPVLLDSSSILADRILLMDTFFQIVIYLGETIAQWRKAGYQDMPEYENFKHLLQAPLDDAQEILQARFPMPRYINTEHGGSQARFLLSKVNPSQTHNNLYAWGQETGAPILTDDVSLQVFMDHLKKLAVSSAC
UniProt O15027: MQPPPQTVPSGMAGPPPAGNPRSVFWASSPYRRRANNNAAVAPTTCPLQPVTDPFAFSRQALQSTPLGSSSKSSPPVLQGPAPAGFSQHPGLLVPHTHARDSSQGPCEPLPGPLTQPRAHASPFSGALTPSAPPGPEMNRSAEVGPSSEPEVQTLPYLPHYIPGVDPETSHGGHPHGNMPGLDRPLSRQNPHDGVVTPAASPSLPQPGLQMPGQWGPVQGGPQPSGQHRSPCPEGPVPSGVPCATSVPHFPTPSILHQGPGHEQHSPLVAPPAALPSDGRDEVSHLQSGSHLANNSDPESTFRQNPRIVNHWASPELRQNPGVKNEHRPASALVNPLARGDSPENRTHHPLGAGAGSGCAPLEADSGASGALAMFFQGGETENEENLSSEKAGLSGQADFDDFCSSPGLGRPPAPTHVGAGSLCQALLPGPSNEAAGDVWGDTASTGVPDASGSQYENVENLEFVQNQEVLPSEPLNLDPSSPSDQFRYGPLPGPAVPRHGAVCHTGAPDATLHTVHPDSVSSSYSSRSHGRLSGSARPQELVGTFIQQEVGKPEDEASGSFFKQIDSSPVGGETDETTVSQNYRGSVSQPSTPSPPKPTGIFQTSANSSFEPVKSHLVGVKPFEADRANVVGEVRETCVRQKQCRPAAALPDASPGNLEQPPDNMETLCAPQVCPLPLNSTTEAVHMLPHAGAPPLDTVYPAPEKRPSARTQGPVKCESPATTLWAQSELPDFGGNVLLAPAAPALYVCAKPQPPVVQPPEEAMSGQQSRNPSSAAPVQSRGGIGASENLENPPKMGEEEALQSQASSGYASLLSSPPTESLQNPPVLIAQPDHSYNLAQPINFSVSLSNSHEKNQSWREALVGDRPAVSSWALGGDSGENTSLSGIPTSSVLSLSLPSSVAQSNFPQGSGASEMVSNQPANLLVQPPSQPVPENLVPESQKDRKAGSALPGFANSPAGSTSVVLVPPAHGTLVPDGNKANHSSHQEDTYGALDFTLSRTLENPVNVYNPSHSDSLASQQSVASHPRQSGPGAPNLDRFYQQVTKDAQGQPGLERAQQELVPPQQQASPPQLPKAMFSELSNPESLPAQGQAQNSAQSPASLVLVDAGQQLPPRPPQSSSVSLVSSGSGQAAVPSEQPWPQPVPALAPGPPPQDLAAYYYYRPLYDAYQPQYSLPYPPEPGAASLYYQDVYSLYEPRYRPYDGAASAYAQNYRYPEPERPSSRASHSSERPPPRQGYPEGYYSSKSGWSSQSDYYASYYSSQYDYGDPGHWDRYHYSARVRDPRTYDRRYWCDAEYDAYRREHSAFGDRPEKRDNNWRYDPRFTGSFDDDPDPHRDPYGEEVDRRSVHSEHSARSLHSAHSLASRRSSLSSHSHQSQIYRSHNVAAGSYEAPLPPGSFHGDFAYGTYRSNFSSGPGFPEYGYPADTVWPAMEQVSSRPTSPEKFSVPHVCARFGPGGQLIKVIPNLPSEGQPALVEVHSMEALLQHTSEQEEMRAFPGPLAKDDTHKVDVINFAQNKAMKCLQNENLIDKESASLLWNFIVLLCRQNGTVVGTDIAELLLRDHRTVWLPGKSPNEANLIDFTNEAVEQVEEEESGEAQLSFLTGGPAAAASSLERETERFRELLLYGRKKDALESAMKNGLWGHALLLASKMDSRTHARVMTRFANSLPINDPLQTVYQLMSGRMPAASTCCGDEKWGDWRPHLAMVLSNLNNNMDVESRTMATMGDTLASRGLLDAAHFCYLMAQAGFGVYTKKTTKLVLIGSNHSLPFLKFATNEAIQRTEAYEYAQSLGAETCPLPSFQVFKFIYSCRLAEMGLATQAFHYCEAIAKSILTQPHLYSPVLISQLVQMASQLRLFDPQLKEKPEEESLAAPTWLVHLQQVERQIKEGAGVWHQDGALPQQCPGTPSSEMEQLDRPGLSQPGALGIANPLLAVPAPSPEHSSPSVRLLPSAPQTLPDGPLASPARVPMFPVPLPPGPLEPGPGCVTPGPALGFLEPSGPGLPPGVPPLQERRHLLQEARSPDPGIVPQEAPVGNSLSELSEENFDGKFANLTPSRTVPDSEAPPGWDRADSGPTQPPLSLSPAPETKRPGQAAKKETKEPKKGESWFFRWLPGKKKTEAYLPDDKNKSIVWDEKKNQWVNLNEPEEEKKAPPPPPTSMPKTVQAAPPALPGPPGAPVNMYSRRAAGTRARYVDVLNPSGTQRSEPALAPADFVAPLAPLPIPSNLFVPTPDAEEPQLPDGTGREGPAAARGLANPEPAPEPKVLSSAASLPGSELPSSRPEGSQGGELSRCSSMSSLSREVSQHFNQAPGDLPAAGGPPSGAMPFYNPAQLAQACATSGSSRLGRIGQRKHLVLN

Tests used:
Assay in all cases: co-IP
[1] = molecular target: T1, EYFP-SEC31A wild-type (UniProt O94979)
T1 sequence: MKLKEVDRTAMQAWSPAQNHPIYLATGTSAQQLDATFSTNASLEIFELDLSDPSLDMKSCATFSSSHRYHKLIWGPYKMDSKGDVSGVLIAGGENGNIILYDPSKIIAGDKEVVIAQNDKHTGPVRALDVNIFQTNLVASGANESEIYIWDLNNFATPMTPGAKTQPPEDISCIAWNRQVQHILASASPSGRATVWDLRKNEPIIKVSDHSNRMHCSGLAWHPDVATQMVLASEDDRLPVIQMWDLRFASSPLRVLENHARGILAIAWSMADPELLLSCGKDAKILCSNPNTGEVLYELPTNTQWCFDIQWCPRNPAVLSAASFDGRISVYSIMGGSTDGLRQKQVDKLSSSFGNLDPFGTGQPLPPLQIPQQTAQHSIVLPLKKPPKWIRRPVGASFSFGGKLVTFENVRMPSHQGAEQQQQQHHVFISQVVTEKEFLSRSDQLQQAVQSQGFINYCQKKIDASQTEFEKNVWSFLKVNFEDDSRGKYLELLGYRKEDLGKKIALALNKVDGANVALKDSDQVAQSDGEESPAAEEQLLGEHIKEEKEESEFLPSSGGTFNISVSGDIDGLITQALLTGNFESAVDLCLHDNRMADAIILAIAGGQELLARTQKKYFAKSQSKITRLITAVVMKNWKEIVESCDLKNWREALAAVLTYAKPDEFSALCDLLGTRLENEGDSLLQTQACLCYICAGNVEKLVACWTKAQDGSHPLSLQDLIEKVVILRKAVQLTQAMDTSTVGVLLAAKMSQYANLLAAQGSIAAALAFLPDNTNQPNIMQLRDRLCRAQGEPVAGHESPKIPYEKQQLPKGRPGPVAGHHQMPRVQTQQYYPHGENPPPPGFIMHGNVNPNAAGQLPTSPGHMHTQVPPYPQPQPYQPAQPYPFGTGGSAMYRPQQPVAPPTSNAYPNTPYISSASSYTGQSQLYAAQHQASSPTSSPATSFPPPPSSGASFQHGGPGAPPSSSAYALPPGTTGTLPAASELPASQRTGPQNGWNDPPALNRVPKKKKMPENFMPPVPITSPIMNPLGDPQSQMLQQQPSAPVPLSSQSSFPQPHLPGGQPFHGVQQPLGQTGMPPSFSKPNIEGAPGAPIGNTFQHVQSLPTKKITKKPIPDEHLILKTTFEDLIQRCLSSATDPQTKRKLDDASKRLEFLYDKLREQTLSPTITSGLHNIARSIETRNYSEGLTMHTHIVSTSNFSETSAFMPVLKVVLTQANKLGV

[2] = molecular target: T2, HA-SEC13 (UniProt P55735)
T2 sequence: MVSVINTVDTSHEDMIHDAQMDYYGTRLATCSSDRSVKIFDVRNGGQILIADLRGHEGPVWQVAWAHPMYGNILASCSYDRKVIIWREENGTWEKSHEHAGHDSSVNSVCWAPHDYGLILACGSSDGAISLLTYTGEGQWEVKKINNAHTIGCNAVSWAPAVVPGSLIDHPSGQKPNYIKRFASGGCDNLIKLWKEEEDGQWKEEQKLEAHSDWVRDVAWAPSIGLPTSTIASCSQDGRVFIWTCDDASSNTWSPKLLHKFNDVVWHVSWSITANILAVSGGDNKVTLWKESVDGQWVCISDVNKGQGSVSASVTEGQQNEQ

[3] = molecular target: SEC23A (UniProt Q15436)
[4] = molecular target: SEC23B (UniProt Q15437)
[5] = molecular target: modified EGFP (mEGFP)-tagged SEC16A (UniProt O15027)
[6] = molecular target: T1, EYFP-SEC31A wild-type; remark: listed apart in the source
[7] = molecular target: T3, endogenous SEC31A tagged with FLAG (FLAG-SEC31A knock-in) (human (endogenous in U2OS)), O94979; conditions: remark: other sources report otherwise
T3 chain: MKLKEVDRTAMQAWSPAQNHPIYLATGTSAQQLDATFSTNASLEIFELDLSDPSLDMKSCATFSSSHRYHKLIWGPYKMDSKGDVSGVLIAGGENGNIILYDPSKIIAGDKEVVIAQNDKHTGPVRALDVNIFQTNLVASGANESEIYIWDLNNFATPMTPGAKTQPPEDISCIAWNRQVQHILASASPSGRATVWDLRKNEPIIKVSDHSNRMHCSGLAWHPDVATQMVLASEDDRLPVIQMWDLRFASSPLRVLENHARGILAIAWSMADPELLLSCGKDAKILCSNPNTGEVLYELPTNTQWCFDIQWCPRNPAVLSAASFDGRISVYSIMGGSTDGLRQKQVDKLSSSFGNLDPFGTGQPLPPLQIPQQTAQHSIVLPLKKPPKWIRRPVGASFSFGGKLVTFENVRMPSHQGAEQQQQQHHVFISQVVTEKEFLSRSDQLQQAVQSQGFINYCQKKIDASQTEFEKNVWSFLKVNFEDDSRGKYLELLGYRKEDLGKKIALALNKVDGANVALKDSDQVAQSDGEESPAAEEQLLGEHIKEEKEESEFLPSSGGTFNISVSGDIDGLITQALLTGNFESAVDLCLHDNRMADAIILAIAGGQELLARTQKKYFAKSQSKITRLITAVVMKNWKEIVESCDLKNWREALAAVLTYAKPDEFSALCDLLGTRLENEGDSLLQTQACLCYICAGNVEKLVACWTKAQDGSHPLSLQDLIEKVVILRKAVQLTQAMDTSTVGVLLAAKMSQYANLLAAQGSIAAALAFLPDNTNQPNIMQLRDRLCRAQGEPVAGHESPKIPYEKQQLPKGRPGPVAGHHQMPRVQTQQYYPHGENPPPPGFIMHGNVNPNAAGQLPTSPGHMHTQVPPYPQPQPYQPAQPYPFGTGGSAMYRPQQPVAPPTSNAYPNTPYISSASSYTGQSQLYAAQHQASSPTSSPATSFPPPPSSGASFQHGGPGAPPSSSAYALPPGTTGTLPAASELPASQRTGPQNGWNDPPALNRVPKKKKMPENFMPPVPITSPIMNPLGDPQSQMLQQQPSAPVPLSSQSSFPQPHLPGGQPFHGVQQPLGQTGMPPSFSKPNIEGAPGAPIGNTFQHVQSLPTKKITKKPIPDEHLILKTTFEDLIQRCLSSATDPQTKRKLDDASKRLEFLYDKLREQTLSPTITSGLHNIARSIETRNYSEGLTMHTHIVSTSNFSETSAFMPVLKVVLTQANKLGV

[8] = molecular target: modified EGFP (mEGFP)-tagged SEC16A (UniProt O15027); remark: listed apart in the source

B1: wild-type ULK1 (Unc-51-like kinase 1) (enzyme, UniProt O70405 1-1051)
chain: MEPGRGGVETVGKFEFSRKDLIGHGAFAVVFKGRHREKHDLEVAVKCINKKNLAKSQTLLGKEIKILKELKHENIVALYDFQEMANSVYLVMEYCNGGDLADYLHTMRTLSEDTVRLFLQQIAGAMRLLHSKGIIHRDLKPQNILLSNPGGRRANPSNIRVKIADFGFARYLQSNMMAATLCGSPMYMAPEVIMSQHYDGKADLWSIGTIVYQCLTGKAPFQASSPQDLRLFYEKNKTLVPAIPRETSAPLRQLLLALLQRNHKDRMDFDEFFHHPFLDASTPIKKSPPVPVPSYPSSGSGSSSSSSSASHLASPPSLGEMPQLQKTLTSPADAAGFLQGSRDSGGSSKDSCDTDDFVMVPAQFPGDLVAEAASAKPPPDSLLCSGSSLVASAGLESHGRTPSPSPTCSSSPSPSGRPGPFSSNRYGASVPIPVPTQVHNYQRIEQNLQSPTQQQTARSSAIRRSGSTTPLGFGRASPSPPSHTDGAMLARKLSLGGGRPYTPSPQVGTIPERPSWSRVPSPQGADVRVGRSPRPGSSVPEHSPRTTGLGCRLHSAPNLSDFHVVRPKLPKPPTDPLGATFSPPQTSAPQPCPGLQSCRPLRGSPKLPDFLQRSPLPPILGSPTKAGPSFDFPKTPSSQNLLTLLARQGVVMTPPRNRTLPDLSEASPFHGQQLGSGLRPAEDTRGPFGRSFSTSRITDLLLKAAFGTQASDSGSTDSLQEKPMEIAPSAGFGGTLHPGARGGGASSPAPVVFTVGSPPSGATPPQSTRTRMFSVGSSSSLGSTGSSSARHLVPGACGEAPELSAPGHCCSLADPLAANLEGAVTFEAPDLPEETLMEQEHTETLHSLRFTLAFAQQVLEIAALKGSASEAAGGPEYQLQESVVADQISQLSREWGFAEQLVLYLKVAELLSSGLQTAIDQIRAGKLCLSSTVKQVVRRLNELYKASVVSCQGLSLRLQRFFLDKQRLLDGIHGVTAERLILSHAVQMVQSAALDEMFQHREGCVPRYHKALLLLEGLQHTLTDQADIENIAKCKLCIERRLSALLSGVYA
[1]
  binding: binds
[2]
  binding: no binding
[3]
  binding: binds
[4]
  binding: binds
[5]
  binding: binds
[6]
  binding: binds

B2: endogenous ULK1, O75385 1-1050 (enzyme)
chain: MEPGRGGTETVGKFEFSRKDLIGHGAFAVVFKGRHREKHDLEVAVKCINKKNLAKSQTLLGKEIKILKELKHENIVALYDFQEMANSVYLVMEYCNGGDLADYLHAMRTLSEDTIRLFLQQIAGAMRLLHSKGIIHRDLKPQNILLSNPAGRRANPNSIRVKIADFGFARYLQSNMMAATLCGSPMYMAPEVIMSQHYDGKADLWSIGTIVYQCLTGKAPFQASSPQDLRLFYEKNKTLVPTIPRETSAPLRQLLLALLQRNHKDRMDFDEFFHHPFLDASPSVRKSPPVPVPSYPSSGSGSSSSSSSTSHLASPPSLGEMQQLQKTLASPADTAGFLHSSRDSGGSKDSSCDTDDFVMVPAQFPGDLVAEAPSAKPPPDSLMCSGSSLVASAGLESHGRTPSPSPPCSSSPSPSGRAGPFSSSRCGASVPIPVPTQVQNYQRIERNLQSPTQFQTPRSSAIRRSGSTSPLGFARASPSPPAHAEHGGVLARKMSLGGGRPYTPSPQVGTIPERPGWSGTPSPQGAEMRGGRSPRPGSSAPEHSPRTSGLGCRLHSAPNLSDLHVVRPKLPKPPTDPLGAVFSPPQASPPQPSHGLQSCRNLRGSPKLPDFLQRNPLPPILGSPTKAVPSFDFPKTPSSQNLLALLARQGVVMTPPRNRTLPDLSEVGPFHGQPLGPGLRPGEDPKGPFGRSFSTSRLTDLLLKAAFGTQAPDPGSTESLQEKPMEIAPSAGFGGSLHPGARAGGTSSPSPVVFTVGSPPSGSTPPQGPRTRMFSAGPTGSASSSARHLVPGPCSEAPAPELPAPGHGCSFADPITANLEGAVTFEAPDLPEETLMEQEHTEILRGLRFTLLFVQHVLEIAALKGSASEAAGGPEYQLQESVVADQISLLSREWGFAEQLVLYLKVAELLSSGLQSAIDQIRAGKLCLSSTVKQVVRRLNELYKASVVSCQGLSLRLQRFFLDKQRLLDRIHSITAERLIFSHAVQMVQSAALDEMFQHREGCVPRYHKALLLLEGLQHMLSDQADIENVTKCKLCIERRLSALLTGICA
[7]
  binding: binds

B3: ULK1-4SA mutant (AMPK phosphorylation-resistant) (enzyme, UniProt O70405 1-1051)
chain: MEPGRGGVETVGKFEFSRKDLIGHGAFAVVFKGRHREKHDLEVAVKCINKKNLAKSQTLLGKEIKILKELKHENIVALYDFQEMANSVYLVMEYCNGGDLADYLHTMRTLSEDTVRLFLQQIAGAMRLLHSKGIIHRDLKPQNILLSNPGGRRANPSNIRVKIADFGFARYLQSNMMAATLCGSPMYMAPEVIMSQHYDGKADLWSIGTIVYQCLTGKAPFQASSPQDLRLFYEKNKTLVPAIPRETSAPLRQLLLALLQRNHKDRMDFDEFFHHPFLDASTPIKKSPPVPVPSYPSSGSGSSSSSSSASHLASPPSLGEMPQLQKTLTSPADAAGFLQGSRDSGGSSKDSCDTDDFVMVPAQFPGDLVAEAASAKPPPDSLLCSGSSLVASAGLESHGRTPSPSPTCSSSPSPSGRPGPFSSNRYGASVPIPVPTQVHNYQRIEQNLQSPTQQQTARSSAIRRSGATTPLGFGRASPSPPSHTDGAMLARKLSLGGGRPYTPSPQVGTIPERPSWSRVPSPQGADVRVGRSPRPGSSVPEHSPRTTGLGCRLHAAPNLSDFHVVRPKLPKPPADPLGATFSPPQTSAPQPCPGLQSCRPLRGSPKLPDFLQRSPLPPILGSPTKAGPSFDFPKTPASQNLLTLLARQGVVMTPPRNRTLPDLSEASPFHGQQLGSGLRPAEDTRGPFGRSFSTSRITDLLLKAAFGTQASDSGSTDSLQEKPMEIAPSAGFGGTLHPGARGGGASSPAPVVFTVGSPPSGATPPQSTRTRMFSVGSSSSLGSTGSSSARHLVPGACGEAPELSAPGHCCSLADPLAANLEGAVTFEAPDLPEETLMEQEHTETLHSLRFTLAFAQQVLEIAALKGSASEAAGGPEYQLQESVVADQISQLSREWGFAEQLVLYLKVAELLSSGLQTAIDQIRAGKLCLSSTVKQVVRRLNELYKASVVSCQGLSLRLQRFFLDKQRLLDGIHGVTAERLILSHAVQMVQSAALDEMFQHREGCVPRYHKALLLLEGLQHTLTDQADIENIAKCKLCIERRLSALLSGVYA
[6]
  binding: binds
[8]
  binding: binds
